According to PMC6220267:
These are yes or no findings as the source states them, for the method shown. Binding seen in cells or lysates may run through a third protein. Sequences can lack the tags named with a protein.

By UniProt entry, the sequences of proteins in these tests, tags left out. Residues count along the entry.
UniProt P02649, residues 19-317: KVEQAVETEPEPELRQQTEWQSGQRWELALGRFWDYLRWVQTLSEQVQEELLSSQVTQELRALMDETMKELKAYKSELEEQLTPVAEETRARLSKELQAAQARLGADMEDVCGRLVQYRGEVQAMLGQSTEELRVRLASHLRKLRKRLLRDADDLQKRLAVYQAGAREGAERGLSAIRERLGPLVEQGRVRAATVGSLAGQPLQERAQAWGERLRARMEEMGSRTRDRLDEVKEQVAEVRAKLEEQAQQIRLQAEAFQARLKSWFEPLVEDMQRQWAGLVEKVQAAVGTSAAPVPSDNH

Molecular target: T1, soluble TREML1‐Fc (human, soluble ectodomain) (human) (UniProt Q86YW5)
T1 sequence: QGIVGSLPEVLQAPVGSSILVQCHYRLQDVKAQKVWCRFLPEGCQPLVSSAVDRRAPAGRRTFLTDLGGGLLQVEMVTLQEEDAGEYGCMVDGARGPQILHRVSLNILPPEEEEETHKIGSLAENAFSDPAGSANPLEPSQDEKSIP
Assay: pull-down; media of HEK293T cells co-transfected with soluble TREM‐Fc and APOE3; TREM‐Fc captured on BSA pre-blocked anti-human IgG Fc agarose beads, washed with PBS 0.5% Triton; APOE3 detected with Ab947

- binding: no binding
Substance: APOE3 (secreted into the media of co‐transfected HEK293T cells) (from UniProt P02649 19-317)
